Part of at least one peptide drawing is inferred or uncertain, most often the ends. Where no end group is shown, it is not given here.
Test system: spontaneous canine breast tumours
Type: in vivo
Conditions: subcutaneous, single dose 80 microgram; tumours resected after 3-5 days

In the case of KKLDTFFVKLSLFTER [P28R], the “recruitment of inflammatory cells and tumour cell death” value is reported as “results in recruitment of inflammatory cells and tumour cell death”.

— patent US20210401926A1, “PHARMACEUTICAL FORMULATIONS OF PEPTIDE INHIBITORS” (CANIMGUIDE THERAPEUTICS AB, priority 2018, published 2021)
